Article PMC10618185
No constants are given. Whether binding was seen depends on the method and setting. In cells and extracts the contact can be indirect. These calls come from enrichment with a bait or labelling near it, and not all partners need be listed. For part of these data: No binding means not detected with the bait. Sequences can lack the tags named with a protein.

T1: Myc-VPS41 (human (cDNA from HeLa Kyoto cells)), P49754
T1 chain: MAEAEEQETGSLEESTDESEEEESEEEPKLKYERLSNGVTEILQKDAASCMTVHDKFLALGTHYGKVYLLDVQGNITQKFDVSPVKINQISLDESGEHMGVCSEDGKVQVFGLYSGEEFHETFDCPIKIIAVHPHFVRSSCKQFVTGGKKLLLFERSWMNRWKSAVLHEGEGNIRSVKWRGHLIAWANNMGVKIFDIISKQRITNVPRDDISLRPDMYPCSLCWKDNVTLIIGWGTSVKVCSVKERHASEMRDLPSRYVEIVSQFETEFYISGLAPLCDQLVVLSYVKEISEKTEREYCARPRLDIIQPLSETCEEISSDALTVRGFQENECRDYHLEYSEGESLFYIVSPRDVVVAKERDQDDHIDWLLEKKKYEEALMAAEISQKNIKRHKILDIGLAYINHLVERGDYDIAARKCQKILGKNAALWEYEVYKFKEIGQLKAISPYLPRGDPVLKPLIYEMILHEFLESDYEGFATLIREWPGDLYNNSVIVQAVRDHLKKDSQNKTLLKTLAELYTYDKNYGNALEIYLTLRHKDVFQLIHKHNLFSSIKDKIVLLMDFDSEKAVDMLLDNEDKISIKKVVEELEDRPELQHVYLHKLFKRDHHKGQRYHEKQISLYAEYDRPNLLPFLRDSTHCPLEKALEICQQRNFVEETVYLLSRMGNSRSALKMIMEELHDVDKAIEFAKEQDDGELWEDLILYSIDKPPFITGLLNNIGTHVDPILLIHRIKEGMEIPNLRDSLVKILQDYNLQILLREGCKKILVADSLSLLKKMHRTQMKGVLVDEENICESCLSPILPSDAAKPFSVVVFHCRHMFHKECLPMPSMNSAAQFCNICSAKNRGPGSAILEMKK

T2: HA-VPS3 (human (cDNA from HeLa Kyoto cells)) (UniProt Q8WUH2)
T2 sequence: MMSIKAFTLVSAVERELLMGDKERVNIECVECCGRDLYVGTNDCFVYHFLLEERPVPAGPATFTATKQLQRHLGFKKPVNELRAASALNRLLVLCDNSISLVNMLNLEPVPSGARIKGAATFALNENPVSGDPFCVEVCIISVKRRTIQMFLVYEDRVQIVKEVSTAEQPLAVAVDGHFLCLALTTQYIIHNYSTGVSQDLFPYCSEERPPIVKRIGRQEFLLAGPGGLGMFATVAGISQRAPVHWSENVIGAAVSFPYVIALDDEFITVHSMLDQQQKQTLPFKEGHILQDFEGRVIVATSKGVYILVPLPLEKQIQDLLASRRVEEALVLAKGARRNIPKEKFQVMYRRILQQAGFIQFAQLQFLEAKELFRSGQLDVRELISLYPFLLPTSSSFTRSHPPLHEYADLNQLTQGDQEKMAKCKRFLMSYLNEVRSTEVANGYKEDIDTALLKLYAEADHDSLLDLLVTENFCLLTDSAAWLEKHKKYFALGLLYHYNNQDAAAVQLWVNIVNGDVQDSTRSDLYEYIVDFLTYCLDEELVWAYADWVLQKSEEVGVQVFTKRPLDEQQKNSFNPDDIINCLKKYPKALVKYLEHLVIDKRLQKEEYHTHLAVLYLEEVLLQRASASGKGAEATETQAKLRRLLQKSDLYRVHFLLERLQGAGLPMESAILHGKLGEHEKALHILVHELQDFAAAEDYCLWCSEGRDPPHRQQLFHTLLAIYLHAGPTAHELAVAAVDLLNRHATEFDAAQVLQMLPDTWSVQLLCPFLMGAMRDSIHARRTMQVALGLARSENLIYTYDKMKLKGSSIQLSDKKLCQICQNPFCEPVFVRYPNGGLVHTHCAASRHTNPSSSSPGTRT


Tests used:
[1] = biological target: T1, Myc-VPS41 (human (cDNA from HeLa Kyoto …)); test: affinity purification with mass spectrometry; WT HeLa cells with single expression of Myc- or HA-tagged bait; IP with anti-Myc or anti-HA antibodies and magnetic beads; eluate resolved by SDS-PAGE, in-gel trypsin digestion, LC-MS/MS (MASCOT, Scaffold 5); high probability threshold; conditions: remark: other sources report otherwise
[2] = biological target: T2, HA-VPS3 (human (cDNA from HeLa Kyoto cells)); test: as above

binding [1]	binding [2]	Binder
binds	–	endogenous VPS3, Q8WUH2 1-860 (protein) MMSIKAFTLVSAVERELLMGDKERVNIECVECCGRDLYVGTNDCFVYHFLLEERPVPAGPATFTATKQLQRHLGFKKPVNELRAASALNRLLVLCDNSISLVNMLNLEPVPSGARIKGAATFALNENPVSGDPFCVEVCIISVKRRTIQMFLVYEDRVQIVKEVSTAEQPLAVAVDGHFLCLALTTQYIIHNYSTGVSQDLFPYCSEERPPIVKRIGRQEFLLAGPGGLGMFATVAGISQRAPVHWSENVIGAAVSFPYVIALDDEFITVHSMLDQQQKQTLPFKEGHILQDFEGRVIVATSKGVYILVPLPLEKQIQDLLASRRVEEALVLAKGARRNIPKEKFQVMYRRILQQAGFIQFAQLQFLEAKELFRSGQLDVRELISLYPFLLPTSSSFTRSHPPLHEYADLNQLTQGDQEKMAKCKRFLMSYLNEVRSTEVANGYKEDIDTALLKLYAEADHDSLLDLLVTENFCLLTDSAAWLEKHKKYFALGLLYHYNNQDAAAVQLWVNIVNGDVQDSTRSDLYEYIVDFLTYCLDEELVWAYADWVLQKSEEVGVQVFTKRPLDEQQKNSFNPDDIINCLKKYPKALVKYLEHLVIDKRLQKEEYHTHLAVLYLEEVLLQRASASGKGAEATETQAKLRRLLQKSDLYRVHFLLERLQGAGLPMESAILHGKLGEHEKALHILVHELQDFAAAEDYCLWCSEGRDPPHRQQLFHTLLAIYLHAGPTAHELAVAAVDLLNRHATEFDAAQVLQMLPDTWSVQLLCPFLMGAMRDSIHARRTMQVALGLARSENLIYTYDKMKLKGSSIQLSDKKLCQICQNPFCEPVFVRYPNGGLVHTHCAASRHTNPSSSSPGTRT
–	binds	endogenous VPS8 (protein, UniProt Q8N3P4 1-1428) MENEPDHENVEQSLCAKTSEEELNKSFNLEASLSKFSYIDMDKELEFKNDLIDDKEFDIPQVDTPPTLESILNETDDEDESFILEDPTLLNIDTIDSHSYDTSSVASSDSGDRTNLKRKKKLPDSFSLHGSVMRHSLLKGISAQIVSAADKVDAGLPTAIAVSSLIAVGTSHGLALIFGKDQNQALRLCLGSTSVGGQYGAISALSINNDCSRLLCGFAKGQITMWDLASGKLLRSITDAHPPGTAILHIKFTDDPTLAICNDSGGSVFELTFKRVMGVRTCESRCLFSGSKGEVCCIEPLHSKPELKDHPITQFSLLAMASLTKILVIGLKPSLKVWMTFPYGRMDPSSVPLLAWHFVAVQNYVNPMLAFCRGDVVHFLLVKRDESGAIHVTKQKHLHLYYDLINFTWINSRTVVLLDSVEKLHVIDRQTQEELETVEISEVQLVYNSSHFKSLATGGNVSQALALVGEKACYQSISSYGGQIFYLGTKSVYVMMLRSWRERVDHLLKQDCLTEALALAWSFHEGKAKAVVGLSGDASKRKAIVADRMVEILFHYADRALKKCPDQGKIQVMEQHFQDMVPVIVDYCLLLQRKDLLFSQMYDKLSENSVAKGVFLECLEPYILSDKLVGITPQVMKDLIVHFQDKKLMENVEALIVHMDITSLDIQQVVLMCWENRLYDAMIYVYNRGMNEFISPMEKLFRVIAPPLNAGKTLTDEQVVMGNKLLVYISCCLAGRAYPLGDIPEDLVPLVKNQVFEFLIRLHSAEASPEEEIYPYIRTLLHFDTREFLNVLALTFEDFKNDKQAVEYQQRIVDILLKVMVENSDFTPSQVGCLFTFLARQLAKPDNTLFVNRTLFDQVLEFLCSPDDDSRHSERQQVLLELLQAGGIVQFEESRLIRMAEKAEFYQICEFMYEREHQYDKIIDCYLRDPLREEEVFNYIHNILSIPGHSAEEKQSVWQKAMDHIEELVSLKPCKAAELVATHFSGHIETVIKKLQNQVLLFKFLRSLLDPREGIHVNQELLQISPCITEQFIELLCQFNPTQVIETLQVLECYRLEETIQITQKYQLHEVTAYLLEKKGDIHGAFLIMLERLQSKLQEVTHQGENTKEDPSLKDVEDTMVETIALCQRNSHNLNQQQREALWFPLLEAMMAPQKLSSSAIPHLHSEALKSLTMQVLNSMAAFIALPSILQRILQDPVYGKGKLGEIQGLILGMLDTFNYEQTLLETTTSLLNQDLHWSLCNLRASVTRGLNPKQDYCSICLQQYKRRQEMADEIIVFSCGHLYHSFCLQNKECTVEFEGQTRWTCYKCSSSNKVGKLSENSSEIKKGRITPSQVKMSPSYHQSKGDPTAKKGTSEPVLDPQQIQAFDQLCRLYRGSSRLALLTELSQNRSSESYRPFSGSQSAPAFNSIFQNENFQLQLIPPPVTED
no binding	–	endogenous VPS8, Q8N3P4 1-1428 (protein) MENEPDHENVEQSLCAKTSEEELNKSFNLEASLSKFSYIDMDKELEFKNDLIDDKEFDIPQVDTPPTLESILNETDDEDESFILEDPTLLNIDTIDSHSYDTSSVASSDSGDRTNLKRKKKLPDSFSLHGSVMRHSLLKGISAQIVSAADKVDAGLPTAIAVSSLIAVGTSHGLALIFGKDQNQALRLCLGSTSVGGQYGAISALSINNDCSRLLCGFAKGQITMWDLASGKLLRSITDAHPPGTAILHIKFTDDPTLAICNDSGGSVFELTFKRVMGVRTCESRCLFSGSKGEVCCIEPLHSKPELKDHPITQFSLLAMASLTKILVIGLKPSLKVWMTFPYGRMDPSSVPLLAWHFVAVQNYVNPMLAFCRGDVVHFLLVKRDESGAIHVTKQKHLHLYYDLINFTWINSRTVVLLDSVEKLHVIDRQTQEELETVEISEVQLVYNSSHFKSLATGGNVSQALALVGEKACYQSISSYGGQIFYLGTKSVYVMMLRSWRERVDHLLKQDCLTEALALAWSFHEGKAKAVVGLSGDASKRKAIVADRMVEILFHYADRALKKCPDQGKIQVMEQHFQDMVPVIVDYCLLLQRKDLLFSQMYDKLSENSVAKGVFLECLEPYILSDKLVGITPQVMKDLIVHFQDKKLMENVEALIVHMDITSLDIQQVVLMCWENRLYDAMIYVYNRGMNEFISPMEKLFRVIAPPLNAGKTLTDEQVVMGNKLLVYISCCLAGRAYPLGDIPEDLVPLVKNQVFEFLIRLHSAEASPEEEIYPYIRTLLHFDTREFLNVLALTFEDFKNDKQAVEYQQRIVDILLKVMVENSDFTPSQVGCLFTFLARQLAKPDNTLFVNRTLFDQVLEFLCSPDDDSRHSERQQVLLELLQAGGIVQFEESRLIRMAEKAEFYQICEFMYEREHQYDKIIDCYLRDPLREEEVFNYIHNILSIPGHSAEEKQSVWQKAMDHIEELVSLKPCKAAELVATHFSGHIETVIKKLQNQVLLFKFLRSLLDPREGIHVNQELLQISPCITEQFIELLCQFNPTQVIETLQVLECYRLEETIQITQKYQLHEVTAYLLEKKGDIHGAFLIMLERLQSKLQEVTHQGENTKEDPSLKDVEDTMVETIALCQRNSHNLNQQQREALWFPLLEAMMAPQKLSSSAIPHLHSEALKSLTMQVLNSMAAFIALPSILQRILQDPVYGKGKLGEIQGLILGMLDTFNYEQTLLETTTSLLNQDLHWSLCNLRASVTRGLNPKQDYCSICLQQYKRRQEMADEIIVFSCGHLYHSFCLQNKECTVEFEGQTRWTCYKCSSSNKVGKLSENSSEIKKGRITPSQVKMSPSYHQSKGDPTAKKGTSEPVLDPQQIQAFDQLCRLYRGSSRLALLTELSQNRSSESYRPFSGSQSAPAFNSIFQNENFQLQLIPPPVTED
